Where a chain is given by its changes, count along the chain named. No constants are given. Whether binding was seen depends on the method and setting. Some entries that bind do so weakly or less than the wild type.
How the values were obtained:
[1] = molecular target: Cyno TL1A (cyno) (UniProt G7PRK8); experiment: SPR
[2] = molecular target: Cyno TL1A (cyno) (UniProt G7PRK8); experiment: SPR, Fab format
[3] = molecular target: Human TL1A (human) (UniProt O95150); experiment: SPR, Fab format

Sequences of proteins named here, by UniProt entry; tags and fusion partners are left off. A change or cut given only in a name is not applied to a line headed by its entry. A line that says so, or that is headed by a name, gives the form on record, which may keep a tag or linker. Residues count along the entry.
Cyno TL1A (G7PRK8, form named): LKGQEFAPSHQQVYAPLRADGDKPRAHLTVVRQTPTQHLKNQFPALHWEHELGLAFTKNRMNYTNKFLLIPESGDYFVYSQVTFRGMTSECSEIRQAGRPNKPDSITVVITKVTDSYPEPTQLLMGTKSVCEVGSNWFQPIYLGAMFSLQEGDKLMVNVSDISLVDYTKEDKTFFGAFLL
UniProt O95150, residues 72-251: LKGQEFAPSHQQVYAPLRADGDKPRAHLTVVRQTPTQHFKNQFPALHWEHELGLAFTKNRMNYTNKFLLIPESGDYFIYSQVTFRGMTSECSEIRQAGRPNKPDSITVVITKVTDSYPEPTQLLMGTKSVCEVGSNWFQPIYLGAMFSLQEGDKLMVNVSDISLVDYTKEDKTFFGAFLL

Measured: binding

B1: Antibody 19 of Sequence Table 1, Fab format (Fab, V domains shown)
VH: QVQLQESGPGLVRPSQTLSLTCTVSGFDITDTYMHWVRQRPGRGLEWMGRIEPAGGHTKYNPSLKSRVTITRDTSKNQVSLRLSSVTAADTAVYYCVRSGGLPDVWGQGSLVTVSS
VL: DIQMTQSPSSLSASVGDRVTITCRASQGVEYMYWYQQKPGKAPKLLIYYASNLASGVPSRFSGSGSGTDFTFTISSLQPEDIATYYCQQWEGNPRTFGQGTKVEIK
binds: all assays above

B2: Antibody 20 of Sequence Table 1, Fab format (Fab, V domains shown)
VH: B1 VH with T30Q, G55S, V97A, L102M, V105M
VL: B1 VL with E30M, Y49G
binds: all assays above

— patent US20250109210A1 (ABSCI, published 2025)
